Values from PubChem BioAssay AID1053208 (Peter MacCallum Cancer Centre, 2014)
Assay: 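Synthetic lethal interactions between gene loss and doxorubicin in osteosarcoma cells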 (primary screen). Cell system: mouse osteosarcoma cells, early-passage culture from an engineered mouse model of fibroblastic bone tumour. Reagent: siRNA pool against mouse genes, 40 nM. Timing: about 120 h (48 h before drug, then 72 h with drug). Conditions: doxorubicin 100 nM for 72 h, roughly 30-40% inhibitory dose. Detection: 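Luminescent ATP signal taken as viability with or without 100 nM doxorubicin for 72 h; mean of two wells set against non-targeting siRNA and turned into robust z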. Scale: viability z-score with doxorubicin: higher = more viable cells under doxorubicin; viability z-score without drug: higher = more viable cells with knock-down alone. Hit rule: 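Called active if knock-down leaves viability unchanged without drug (z within -2 to 2) but lowers it with doxorubicin (z at or under -2)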.
In all, the deposit lists about 17,000 reagents; this is an unselected part. In the full data, 788 (4.7%) are marked active. 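Calls rest on z-score classes alone; an extra cut-off of viability at most 70% of control was not applied to them.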 A number with no mark means an inactive call. Not all columns of the deposit are shown.

combined z-score class | viability z-score with doxorubicin | viability z-score without drug | gene knocked down
no change with or without drug | 0.9 | 1.52 | Gm9946 (predicted gene 9946)
low cell count without drug only | 0 | -2.02 | Mff (mitochondrial fission factor)
no change with or without drug | 0.11 | 1.18 | Noc4l (NOC4 like)
no change with or without drug | -1.57 | 0.51 | Qsox1 (quiescin Q6 sulfhydryl oxidase 1)
no change with or without drug | 0.9 | -0.67 | Tmem63a (transmembrane protein 63a)
no change with or without drug | -0.45 | 1.01 | Ap1m1 (adaptor-related protein complex AP-1, mu subunit 1)
no change with or without drug | 0.45 | 0.51 | Prr36 (proline rich 36)
no change with or without drug | 0.9 | 1.01 | Npy4r (neuropeptide Y receptor Y4)
low cell count with and without drug | -6.52 | -6.91 | Rpl6 (ribosomal protein L6)
no change with or without drug | -0.67 | -0.51 | Papln (papilin, proteoglycan-like sulfated glycoprotein)
no change with or without drug | -0.34 | -1.35 | Trmt10c (tRNA methyltransferase 10C, mitochondrial RNase P subunit)
no change with or without drug | -0.9 | -0.51 | Hdac3 (histone deacetylase 3)
no change with or without drug | -1.24 | -1.18 | Ppbp (pro-platelet basic protein)
no change with or without drug | -0.45 | 1.52 | D630004N19Rik (RIKEN cDNA D630004N19 gene)
no change with or without drug | 0.67 | 0.84 | Ppp1r1a (protein phosphatase 1, regulatory inhibitor subunit 1A)
low cell count with doxorubicin only (active) | -2.02 | -1.01 | Magoh (mago homolog, exon junction complex core component)
no change with or without drug | -0.45 | -0.84 | Ms4a7 (membrane-spanning 4-domains, subfamily A, member 7)
no change with or without drug | 0.22 | 0.51 | Tbc1d4 (TBC1 domain family, member 4)
no change with or without drug | 0 | -1.18 | Sema4b
no change with or without drug | 0 | -0.84 | Kpna1 (karyopherin subunit alpha 1)
no change with or without drug | -1.57 | -0.84 | Aicda (activation-induced cytidine deaminase)
no change with or without drug | -0.9 | 0.51 | Macir (macrophage immunometabolism regulator)
no change with or without drug | 1.57 | -0.17 | Rpusd1 (RNA pseudouridylate synthase domain containing 1)
no change with or without drug | -0.9 | 0.51 | Nrxn3 (neurexin III)
no change with or without drug | -0.45 | 0 | Ankfn1 (ankyrin-repeat and fibronectin type III domain containing 1)
low cell count with and without drug | -2.36 | -3.04 | Krr1 (KRR1 small subunit processome component)
no change with or without drug | -1.35 | -0.17 | Arhgap31 (Rho GTPase activating protein 31)
no change with or without drug | 0.9 | -0.51 | Pyy (peptide YY)
no change with or without drug | 0.45 | 0.84 | Oaz1 (ornithine decarboxylase antizyme 1)
no change with or without drug | -0.79 | 0.51 | Ebf2 (early B cell factor 2)
no change with or without drug | -0.45 | -0.17 | Cav2 (caveolin 2)
no change with or without drug | -0.67 | -1.18 | Rhpn2 (rhophilin, Rho GTPase binding protein 2)
no change with or without drug | 0.11 | -0.34 | Klrc1 (killer cell lectin-like receptor subfamily C, member 1)
no change with or without drug | 0.79 | 1.52 | Ift20 (intraflagellar transport 20)

5 consecutive entries already listed, quoted:
combined z-score class | viability z-score with doxorubicin | viability z-score without drug | gene knocked down
no change with or without drug | 0.45 | 0.51 | Prr36 (proline rich 36)
no change with or without drug | 0.9 | 1.01 | Npy4r (neuropeptide Y receptor Y4)
low cell count with and without drug | -6.52 | -6.91 | Rpl6 (ribosomal protein L6)
no change with or without drug | -0.67 | -0.51 | Papln (papilin, proteoglycan-like sulfated glycoprotein)
no change with or without drug | -0.34 | -1.35 | Trmt10c (tRNA methyltransferase 10C, mitochondrial RNase P subunit)
